This is one part of the list.

Sequences of proteins named here, by UniProt entry; tags and fusion partners are left off. A change or cut given only in a name is not applied to a line headed by its entry.
UniProt Q9BU76: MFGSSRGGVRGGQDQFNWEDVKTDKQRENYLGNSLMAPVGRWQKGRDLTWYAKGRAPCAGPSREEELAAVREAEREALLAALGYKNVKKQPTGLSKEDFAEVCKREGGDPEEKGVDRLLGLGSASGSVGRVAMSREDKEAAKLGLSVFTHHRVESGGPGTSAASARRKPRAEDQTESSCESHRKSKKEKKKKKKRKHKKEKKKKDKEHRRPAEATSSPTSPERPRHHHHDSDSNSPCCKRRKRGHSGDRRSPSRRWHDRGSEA
UniProt O96007: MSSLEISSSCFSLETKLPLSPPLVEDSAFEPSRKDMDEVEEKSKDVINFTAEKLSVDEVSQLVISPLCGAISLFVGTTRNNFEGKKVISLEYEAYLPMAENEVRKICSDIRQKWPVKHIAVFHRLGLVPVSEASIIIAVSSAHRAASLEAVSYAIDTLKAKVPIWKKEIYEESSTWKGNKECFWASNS
UniProt Q96EY8: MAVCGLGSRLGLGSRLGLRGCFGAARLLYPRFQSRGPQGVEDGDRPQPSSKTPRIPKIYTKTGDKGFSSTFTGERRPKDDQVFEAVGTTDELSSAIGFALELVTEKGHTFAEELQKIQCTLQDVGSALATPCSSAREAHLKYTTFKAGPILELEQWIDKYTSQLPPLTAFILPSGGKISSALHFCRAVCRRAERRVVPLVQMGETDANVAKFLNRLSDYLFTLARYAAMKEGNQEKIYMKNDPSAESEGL
UniProt P25325: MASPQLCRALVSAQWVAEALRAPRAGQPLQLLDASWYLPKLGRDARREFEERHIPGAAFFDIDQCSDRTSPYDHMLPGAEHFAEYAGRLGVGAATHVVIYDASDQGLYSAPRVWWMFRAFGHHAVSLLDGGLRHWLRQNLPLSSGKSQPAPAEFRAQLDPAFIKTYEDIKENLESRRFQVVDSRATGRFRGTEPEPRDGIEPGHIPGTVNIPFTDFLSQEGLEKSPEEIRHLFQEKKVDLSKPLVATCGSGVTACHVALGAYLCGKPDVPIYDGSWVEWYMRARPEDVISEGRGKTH
UniProt P34949: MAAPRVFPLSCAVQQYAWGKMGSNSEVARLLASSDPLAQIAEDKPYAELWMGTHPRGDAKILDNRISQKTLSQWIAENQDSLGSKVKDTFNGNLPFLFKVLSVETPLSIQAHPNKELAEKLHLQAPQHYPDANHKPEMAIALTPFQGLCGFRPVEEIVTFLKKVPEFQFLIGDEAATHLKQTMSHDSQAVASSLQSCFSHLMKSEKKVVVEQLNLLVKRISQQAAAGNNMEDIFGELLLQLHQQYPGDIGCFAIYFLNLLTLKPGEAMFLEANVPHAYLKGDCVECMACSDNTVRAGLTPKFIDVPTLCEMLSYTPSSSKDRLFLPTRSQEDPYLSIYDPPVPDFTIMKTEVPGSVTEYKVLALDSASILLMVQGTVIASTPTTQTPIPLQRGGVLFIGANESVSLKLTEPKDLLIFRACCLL
UniProt P14174: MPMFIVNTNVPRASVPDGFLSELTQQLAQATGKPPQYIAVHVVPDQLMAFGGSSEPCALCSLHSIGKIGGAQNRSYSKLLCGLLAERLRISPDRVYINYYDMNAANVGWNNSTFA
UniProt Q9NXC5: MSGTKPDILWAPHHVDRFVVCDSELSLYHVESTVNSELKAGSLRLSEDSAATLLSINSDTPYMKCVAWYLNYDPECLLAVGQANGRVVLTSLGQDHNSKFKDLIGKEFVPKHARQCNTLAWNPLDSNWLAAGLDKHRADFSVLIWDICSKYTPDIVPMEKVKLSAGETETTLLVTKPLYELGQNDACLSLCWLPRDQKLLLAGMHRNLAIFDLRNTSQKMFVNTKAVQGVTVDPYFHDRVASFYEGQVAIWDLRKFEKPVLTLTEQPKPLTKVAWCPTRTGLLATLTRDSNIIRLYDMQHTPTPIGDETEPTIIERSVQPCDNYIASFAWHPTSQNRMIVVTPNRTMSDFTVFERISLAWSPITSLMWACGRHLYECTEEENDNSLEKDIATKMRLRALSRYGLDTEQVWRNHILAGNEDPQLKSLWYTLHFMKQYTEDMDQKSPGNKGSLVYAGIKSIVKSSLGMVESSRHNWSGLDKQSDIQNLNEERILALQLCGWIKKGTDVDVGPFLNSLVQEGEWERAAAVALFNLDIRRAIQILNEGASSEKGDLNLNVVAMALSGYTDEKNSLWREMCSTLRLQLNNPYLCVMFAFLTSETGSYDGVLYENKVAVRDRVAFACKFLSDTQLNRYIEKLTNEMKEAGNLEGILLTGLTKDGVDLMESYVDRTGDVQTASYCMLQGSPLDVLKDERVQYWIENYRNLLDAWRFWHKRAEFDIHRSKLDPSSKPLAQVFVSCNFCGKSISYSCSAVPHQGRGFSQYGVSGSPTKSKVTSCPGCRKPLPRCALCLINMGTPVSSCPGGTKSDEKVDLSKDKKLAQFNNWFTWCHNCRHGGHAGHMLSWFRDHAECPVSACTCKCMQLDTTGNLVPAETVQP
UniProt P49959: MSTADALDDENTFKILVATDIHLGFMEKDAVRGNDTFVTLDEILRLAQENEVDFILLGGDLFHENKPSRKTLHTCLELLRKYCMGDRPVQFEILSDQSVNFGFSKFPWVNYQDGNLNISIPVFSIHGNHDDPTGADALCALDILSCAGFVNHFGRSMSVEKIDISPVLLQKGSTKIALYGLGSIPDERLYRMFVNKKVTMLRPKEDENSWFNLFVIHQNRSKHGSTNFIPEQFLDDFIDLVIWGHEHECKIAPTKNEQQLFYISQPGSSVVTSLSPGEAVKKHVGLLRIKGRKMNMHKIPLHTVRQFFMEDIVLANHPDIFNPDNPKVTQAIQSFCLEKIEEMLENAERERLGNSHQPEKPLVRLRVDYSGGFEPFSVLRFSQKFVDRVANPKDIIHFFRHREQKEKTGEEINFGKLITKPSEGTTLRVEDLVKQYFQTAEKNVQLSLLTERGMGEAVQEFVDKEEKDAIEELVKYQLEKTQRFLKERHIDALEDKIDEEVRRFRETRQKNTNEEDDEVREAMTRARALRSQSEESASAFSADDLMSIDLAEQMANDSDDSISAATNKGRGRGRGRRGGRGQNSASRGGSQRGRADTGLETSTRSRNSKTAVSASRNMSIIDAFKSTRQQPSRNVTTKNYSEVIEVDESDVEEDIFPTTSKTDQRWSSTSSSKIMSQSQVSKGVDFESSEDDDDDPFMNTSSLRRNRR
UniProt Q99549: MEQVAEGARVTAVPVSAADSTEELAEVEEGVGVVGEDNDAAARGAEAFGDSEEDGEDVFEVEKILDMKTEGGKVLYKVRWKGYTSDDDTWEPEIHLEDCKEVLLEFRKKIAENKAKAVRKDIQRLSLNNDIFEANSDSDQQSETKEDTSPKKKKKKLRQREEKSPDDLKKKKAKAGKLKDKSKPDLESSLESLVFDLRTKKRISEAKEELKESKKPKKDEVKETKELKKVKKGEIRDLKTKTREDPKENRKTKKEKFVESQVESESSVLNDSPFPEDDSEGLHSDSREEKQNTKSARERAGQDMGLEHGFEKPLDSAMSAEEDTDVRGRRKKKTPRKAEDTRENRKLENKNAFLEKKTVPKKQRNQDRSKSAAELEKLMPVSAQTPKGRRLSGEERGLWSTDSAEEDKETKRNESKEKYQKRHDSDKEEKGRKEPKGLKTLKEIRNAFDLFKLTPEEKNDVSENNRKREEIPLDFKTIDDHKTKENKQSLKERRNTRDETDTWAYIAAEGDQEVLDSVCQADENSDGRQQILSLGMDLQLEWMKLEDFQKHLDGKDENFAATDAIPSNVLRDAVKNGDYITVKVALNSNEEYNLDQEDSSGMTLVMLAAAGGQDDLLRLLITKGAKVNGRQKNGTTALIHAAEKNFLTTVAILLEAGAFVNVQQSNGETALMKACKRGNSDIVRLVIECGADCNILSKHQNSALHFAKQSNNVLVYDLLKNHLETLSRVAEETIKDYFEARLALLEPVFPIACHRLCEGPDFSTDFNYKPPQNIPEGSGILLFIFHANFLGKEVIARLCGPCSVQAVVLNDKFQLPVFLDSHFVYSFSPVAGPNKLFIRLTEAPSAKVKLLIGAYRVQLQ
UniProt A9UHW6: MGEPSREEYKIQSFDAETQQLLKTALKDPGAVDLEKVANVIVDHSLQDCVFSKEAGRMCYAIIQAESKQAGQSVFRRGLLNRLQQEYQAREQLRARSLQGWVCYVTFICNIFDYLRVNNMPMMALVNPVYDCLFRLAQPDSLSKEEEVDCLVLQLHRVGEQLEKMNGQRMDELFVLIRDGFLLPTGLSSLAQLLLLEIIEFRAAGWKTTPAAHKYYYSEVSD
UniProt Q9H000: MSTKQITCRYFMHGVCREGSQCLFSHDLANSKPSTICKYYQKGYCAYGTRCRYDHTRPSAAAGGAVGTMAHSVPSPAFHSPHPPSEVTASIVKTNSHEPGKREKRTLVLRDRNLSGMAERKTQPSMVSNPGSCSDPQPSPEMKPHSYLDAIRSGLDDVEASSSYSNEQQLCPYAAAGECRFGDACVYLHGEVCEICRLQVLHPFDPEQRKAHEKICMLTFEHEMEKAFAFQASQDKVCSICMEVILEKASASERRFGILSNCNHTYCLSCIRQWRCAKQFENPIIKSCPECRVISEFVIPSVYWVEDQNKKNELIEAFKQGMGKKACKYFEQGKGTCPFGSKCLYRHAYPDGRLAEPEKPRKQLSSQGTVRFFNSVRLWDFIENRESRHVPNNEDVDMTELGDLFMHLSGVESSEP
UniProt O95563: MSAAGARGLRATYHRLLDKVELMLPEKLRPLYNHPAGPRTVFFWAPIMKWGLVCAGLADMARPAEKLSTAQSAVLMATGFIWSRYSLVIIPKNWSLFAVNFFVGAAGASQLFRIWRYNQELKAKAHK
UniProt Q96T76: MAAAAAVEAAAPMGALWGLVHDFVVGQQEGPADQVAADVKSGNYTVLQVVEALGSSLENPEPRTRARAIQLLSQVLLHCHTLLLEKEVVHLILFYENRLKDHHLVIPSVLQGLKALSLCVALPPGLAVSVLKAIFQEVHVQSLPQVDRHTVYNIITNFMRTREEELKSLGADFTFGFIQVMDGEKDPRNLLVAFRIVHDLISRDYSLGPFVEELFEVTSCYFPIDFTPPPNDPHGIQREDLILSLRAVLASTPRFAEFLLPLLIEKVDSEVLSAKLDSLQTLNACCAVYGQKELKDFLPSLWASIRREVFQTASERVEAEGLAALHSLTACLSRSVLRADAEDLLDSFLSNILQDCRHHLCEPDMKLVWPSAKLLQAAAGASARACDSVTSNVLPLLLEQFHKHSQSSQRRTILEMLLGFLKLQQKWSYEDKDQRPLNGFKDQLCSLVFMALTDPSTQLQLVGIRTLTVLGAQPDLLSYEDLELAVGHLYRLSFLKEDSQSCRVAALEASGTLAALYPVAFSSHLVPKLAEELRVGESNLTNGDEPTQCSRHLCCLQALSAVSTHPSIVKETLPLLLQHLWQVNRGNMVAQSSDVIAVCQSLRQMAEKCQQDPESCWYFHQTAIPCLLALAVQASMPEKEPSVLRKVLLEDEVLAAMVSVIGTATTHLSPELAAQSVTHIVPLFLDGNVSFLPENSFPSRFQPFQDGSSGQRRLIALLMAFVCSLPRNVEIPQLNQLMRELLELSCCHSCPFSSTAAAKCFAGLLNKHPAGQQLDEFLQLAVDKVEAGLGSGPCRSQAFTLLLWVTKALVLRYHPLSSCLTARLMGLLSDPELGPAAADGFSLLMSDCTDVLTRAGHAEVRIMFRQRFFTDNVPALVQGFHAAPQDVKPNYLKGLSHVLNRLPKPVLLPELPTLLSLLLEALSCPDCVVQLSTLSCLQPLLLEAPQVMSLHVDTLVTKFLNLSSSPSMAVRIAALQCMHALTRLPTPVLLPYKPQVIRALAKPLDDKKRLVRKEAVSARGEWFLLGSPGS
UniProt Q96BX8: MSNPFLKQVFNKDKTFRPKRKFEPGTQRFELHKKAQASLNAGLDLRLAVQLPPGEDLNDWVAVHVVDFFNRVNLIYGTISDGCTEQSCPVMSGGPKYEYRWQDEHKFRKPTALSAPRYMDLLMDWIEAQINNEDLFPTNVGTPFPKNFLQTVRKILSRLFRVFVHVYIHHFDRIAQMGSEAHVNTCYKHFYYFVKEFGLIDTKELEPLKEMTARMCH
UniProt Q99547: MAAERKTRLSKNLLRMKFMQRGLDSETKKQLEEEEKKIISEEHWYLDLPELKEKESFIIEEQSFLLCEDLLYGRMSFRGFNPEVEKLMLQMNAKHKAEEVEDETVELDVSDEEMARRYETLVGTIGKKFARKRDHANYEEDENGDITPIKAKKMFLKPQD
UniProt Q9H8M7: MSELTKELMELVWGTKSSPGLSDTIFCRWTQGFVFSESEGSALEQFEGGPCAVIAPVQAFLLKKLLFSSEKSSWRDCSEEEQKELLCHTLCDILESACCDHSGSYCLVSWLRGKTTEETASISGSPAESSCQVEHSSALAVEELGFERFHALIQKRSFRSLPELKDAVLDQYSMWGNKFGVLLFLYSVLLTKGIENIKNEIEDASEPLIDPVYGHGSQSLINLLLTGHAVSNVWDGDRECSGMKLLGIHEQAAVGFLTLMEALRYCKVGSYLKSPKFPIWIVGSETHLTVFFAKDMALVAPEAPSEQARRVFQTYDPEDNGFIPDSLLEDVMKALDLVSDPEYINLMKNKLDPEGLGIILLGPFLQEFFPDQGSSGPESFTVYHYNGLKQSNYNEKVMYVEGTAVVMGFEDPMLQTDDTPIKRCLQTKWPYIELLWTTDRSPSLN

Compound in one test: COc1cccc2cc(-c3nc([C@H]4CC[C@H](C(=O)O)CC4)n4ncnc(N)c34)[nH]c12
The test can be described thus: log2 fold change, soluble protein after heating vs DMSO (PISA); higher = thermal stabilisation; K562 cells, 10 uM, 30 min; active = over 0.2 and 3.5 SD of the protein, either way, in both replicates (recomputed). An outline of the steps:
(§1)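 K562 cells (2×10^6 cells/mL) were treated with 10 μM compound for 30 min, and aliquots were heated for 3 min over 48°C-58°C. Pooled aliquots were extracted in PBS with 0.5% NP-40 at 4°C, and the supernatant after 21,000xg for 90 min was measured by TMTpro 16plex LC-MS/MS with channel sums equalised. Reported thermal stability, relative to control samples and from duplicates, is a log2 fold change.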
Regarding MRPL41 (UniProt Q8IXM3), the log2 fold change is inactive: -0.112.
Consider MMTAG2 (UniProt Q9BU76), for which the log2 fold change is inactive: -0.161.
For the target MOCS2 (UniProt O96007), the log2 fold change was inactive: 0.067.
As for MMAB (UniProt Q96EY8), the log2 fold change was inactive: 0.029.
For the target MPST isoform 2 (UniProt P25325), the log2 fold change is inactive: -0.037.
Take MRPL53 (UniProt Q96EL3): the log2 fold change was inactive: -0.073.
The same measure, in the same setting: then MPI (UniProt P34949), with inactive: 0.072; and MIF (UniProt P14174), with inactive: -0.043.
With MRPL50 (UniProt Q8N5N7), the log2 fold change was inactive: -0.022.
Regarding MRPL51 (UniProt Q4U2R6), the log2 fold change is inactive: -0.077.
On the same count and under the same terms, then MRPL42 (UniProt Q9Y6G3), with inactive: 0.075; and MRPL45 (UniProt Q9BRJ2), with inactive: -0.089; and MIOS (UniProt Q9NXC5), with inactive: -0.045.
In the case of MRE11 isoform 3 (UniProt P49959), the log2 fold change was inactive: -0.019.
Consider MPHOSPH8 isoform 2 (UniProt Q99549), for which the log2 fold change is inactive: 0.125.
MRPL19 (UniProt P49406): the log2 fold change was inactive: -0.137.
Consider MIEF1 (UniProt L0R8F8), for which the log2 fold change was inactive: 0.
The same measure, in the same setting: in the case of MRPL28 (UniProt Q13084) it was inactive: -0.098.
The same measure, in the same setting: then MIF4GD isoform 3 (UniProt A9UHW6), with inactive: -0.014; and MRPL4 (UniProt Q9BYD3), with inactive: -0.002; and MRPL46 (UniProt Q9H2W6), with inactive: -0.029.
For the target MINK1 (UniProt Q8N4C8), the log2 fold change was inactive: 0.024.
The same measure, in the same setting: in the case of MRPL20 (UniProt Q9BYC9) it was inactive: -0.058; in that of MRPL22 (UniProt Q9NWU5), inactive: -0.103.
Consider MPZL1 (UniProt O95297), for which the log2 fold change was inactive: 0.06.
As to MRPL27 (UniProt Q9P0M9), the log2 fold change was inactive: -0.174.
Still for that read-out and setting: then MKRN2 (UniProt Q9H000), with inactive: -0.079; and MIPEP (UniProt Q99797), with inactive: -0.002.
Take MRPL55 isoform 2 (UniProt Q7Z7F7): the log2 fold change is inactive: -0.075.
Regarding MRPL30 isoform 2 (UniProt Q8TCC3), the log2 fold change is inactive: -0.062.
On to MPC2 (UniProt O95563), for which the log2 fold change is inactive: 0.024.
Consider MMS19 isoform 8 (UniProt Q96T76), for which the log2 fold change is inactive: 0.019.
Regarding MOB3A (UniProt Q96BX8), the log2 fold change was inactive: 0.062.
As for MICOS13 (UniProt Q5XKP0), the log2 fold change is inactive: 0.079.
Same read-out and setting: then MPHOSPH6 (UniProt Q99547), with inactive: -0.047; and MKLN1 (UniProt Q9UL63), with inactive: -0.008; and MINDY3 (UniProt Q9H8M7), with inactive: 0.043.
The same measure, in the same setting: then MRPL1 (UniProt Q9BYD6), with inactive: -0.055; and MIEN1 (UniProt Q9BRT3), with inactive: 0.001.

Compound in a further test: CS(=O)(=O)CCNCc1ccc(-c2ccc3ncnc(Nc4ccc(OCc5cccc(F)c5)c(Cl)c4)c3c2)o1 [lapatinib]
The test is described as above. An outline of the steps: as §1
As to MRPL41 (UniProt Q8IXM3), the log2 fold change was inactive: 0.145.
MMTAG2 (UniProt Q9BU76): the log2 fold change was inactive: 0.122.
Still for that read-out and setting: then MOCS2 (UniProt O96007), with inactive: -0.041; and MMAB (UniProt Q96EY8), with inactive: 0.005; and MPST isoform 2 (UniProt P25325), with inactive: -0.005.
Same read-out and setting: in the case of MRPL53 (UniProt Q96EL3) it was inactive: 0.159; in that of MPI (UniProt P34949), inactive: -0.04.
Still for that read-out and setting: in the case of MIF (UniProt P14174) it was inactive: -0.034; in that of MRPL50 (UniProt Q8N5N7), inactive: 0.42; in that of MRPL51 (UniProt Q4U2R6), inactive: 0.153.
For MRPL42 (UniProt Q9Y6G3), the log2 fold change is inactive: -0.085.
Still for that read-out and setting: then MRPL45 (UniProt Q9BRJ2), with inactive: 0.109.
The same measure, in the same setting: in the case of MIOS (UniProt Q9NXC5) it was inactive: 0.014; in that of MRE11 isoform 3 (UniProt P49959), inactive: 0.02.
MPHOSPH8 isoform 2 (UniProt Q99549): the log2 fold change was inactive: 0.024.
In the case of MRPL19 (UniProt P49406), the log2 fold change was inactive: 0.112.
The same measure, in the same setting: then MIEF1 (UniProt L0R8F8), with inactive: 0.135.
Same read-out and setting: in the case of MRPL28 (UniProt Q13084) it was inactive: 0.108; in that of MIF4GD isoform 3 (UniProt A9UHW6), inactive: 0.008; in that of MRPL4 (UniProt Q9BYD3), inactive: 0.161.
On the same count and under the same terms, in the case of MRPL46 (UniProt Q9H2W6) it was inactive: 0.082; in that of MINK1 (UniProt Q8N4C8), inactive: 0.024; in that of MRPL20 (UniProt Q9BYC9), inactive: 0.103.
Take MRPL22 (UniProt Q9NWU5): the log2 fold change is inactive: 0.194.
As to MPZL1 (UniProt O95297), the log2 fold change is inactive: -0.092.
Still for that read-out and setting: then MRPL27 (UniProt Q9P0M9), with inactive: 0.235; and MKRN2 (UniProt Q9H000), with inactive: -0.027.
Same read-out and setting: then MIPEP (UniProt Q99797), with inactive: 0.007; and MRPL55 isoform 2 (UniProt Q7Z7F7), with inactive: 0.175.
The same measure, in the same setting: then MRPL30 isoform 2 (UniProt Q8TCC3), with inactive: 0.174; and MPC2 (UniProt O95563), with inactive: 0.024.
Take MMS19 isoform 8 (UniProt Q96T76): the log2 fold change is inactive: -0.021.
On the same count and under the same terms, then MOB3A (UniProt Q96BX8), with inactive: 0.04.
Same read-out and setting: then MICOS13 (UniProt Q5XKP0), with inactive: -0.063; and MPHOSPH6 (UniProt Q99547), with inactive: 0.02.
Same read-out and setting: in the case of MKLN1 (UniProt Q9UL63) it was inactive: 0.039.
On to MINDY3 (UniProt Q9H8M7), for which the log2 fold change is inactive: -0.006.
Still for that read-out and setting: then MRPL1 (UniProt Q9BYD6), with inactive: 0.137; and MIEN1 (UniProt Q9BRT3), with inactive: -0.016.

The values are drawn from the supplement of paper PMC10849652.
